Values quoted from earlier work in paper PMC7932937 (Clinical Pharmacokinetics, 2020).

Details: in the presence of ritonavir-boosted darunavir ref 32; cited from earlier work

## CC(C)c1c(C(=O)Nc2ccccc2)c(-c2ccccc2)c(-c2ccc(F)cc2)n1CC[C@@H](O)C[C@@H](O)CC(=O)O [atorvastatin]
  increase in atorvastatin exposure: 200–300%
